Reference: PubChem BioAssay AID493246 (Drosophila RNAi Screening Center, 2011)
Screen: 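Genome-wide search for dsRNAs that reduce cell number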 (primary screen). Cell system: Drosophila Kc and S2R+ cells. Reagents: long dsRNA against Drosophila genes. Measured: 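Raw, unnormalised count of remaining cells in each well; per-plate z-scores of cell number underlie the calls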. Scale: Kc cell number and S2R+ cell number: higher = more cells remaining. Active means: 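Active when the per-plate z-score of cell number is 3 or more in the direction of fewer cells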.
The deposit covers about 21,000 reagents; this is an unselected part of those that have a named target and a result. In the full data, 429 (2%) are marked active. 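Values are raw and not normalised between plates; calls rest on per-plate z-scores that were not deposited.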 A number with no mark means an inactive call. Reagents against one gene are numbered here. Names joined by + are all predicted targets of the reagent. Reagent sequences are not shown. Not given: the amount of reagent, the time to read-out.

predicted target	reagent	Kc cell number, rep 1	Kc cell number, rep 2	S2R+ cell number, rep 1	S2R+ cell number, rep 2
CG7974	1	1.33e6	1.40e6	1.23e6	1.20e6
Bre1	1	9.55e5	1.14e6	1.29e6	8.94e5
Obp56c	1	1.43e6	1.40e6	1.08e6	1.18e6
Inx7 + cm	1	5.47e5		9.21e5	
Gem3	1	1.55e6	1.66e6	1.21e6	1.43e6
Rcd5	1	1.23e6	1.29e6	1.05e6	1.09e6
na	1	1.79e6	1.76e6	1.06e6	1.21e6
CG14042 + SP555	1	1.63e6	1.49e6	1.09e6	1.26e6
CG14042 + SP555	2	1.60e6	1.55e6	1.19e6	1.38e6
CG7335	1	1.58e6	1.48e6	1.40e6	1.42e6
bcd + CR14578	1	1.47e6	1.45e6	9.94e5	1.16e6
CG42340	1	1.48e6	1.77e6	1.04e6	1.09e6
CG42340	2	1.51e6	1.51e6	1.01e6	1.11e6
CG42340	3	1.53e6	1.39e6	9.71e5	1.08e6
Pbp45	1	1.49e6	1.56e6	1.23e6	1.29e6
mag	1	1.70e6	1.71e6	1.47e6	1.49e6
vers	1	1.20e6	1.24e6	1.21e6	1.16e6
Acp29AB	1	1.69e6	1.76e6	9.14e5	1.16e6
CG13060	1	1.43e6	1.58e6	1.27e6	1.43e6
sip3	1	5.38e5		8.18e5	
Gr57a	1	1.50e6	1.34e6	9.94e5	1.28e6
CG11147	1	1.43e6	1.36e6	1.12e6	1.26e6
RpS10b	1	1.23e6	1.23e6	8.65e5	9.74e5
CG8237	1	1.45e6	1.50e6	9.46e5	1.04e6

2 of these entries in another layout.
{"predicted target": "Gr57a", "reagent": 1, "Kc cell number, rep 1": 1.50e6, "Kc cell number, rep 2": 1.34e6, "S2R+ cell number, rep 1": 9.94e5, "S2R+ cell number, rep 2": 1.28e6}
{"predicted target": "CG11147", "reagent": 1, "Kc cell number, rep 1": 1.43e6, "Kc cell number, rep 2": 1.36e6, "S2R+ cell number, rep 1": 1.12e6, "S2R+ cell number, rep 2": 1.26e6}
